Earlier results, collected in patent publication US4812312A, “Liposome-incorporated nystatin” (Board of Regents of the University of Texas System, priority 1987, dated 1989).

Conditions: cited from earlier work

Q: Which solubility in water does the source give for `C[C@@H]1[C@H](O)[C@@H](C)/C=C/C=C/C=C/C=C/C=C/C=C/C=C/[C@H](O[C@@H]2O[C@H](C)[C@@H](O)[C@H](N)[C@@H]2O)C[C@@H]2O[C@](O)(C[C@@H](O)C[C@@H](O)[C@H](O)CC[C@@H](O)C[C@@H](O)CC(=O)O[C@H]1C)C[C@H](O)[C@H]2C(=O)O` [amphotericin B] here?
A: insoluble in water
